Source: the supplement of paper PMC10849652
The other results are listed elsewhere or left out.

The chains behind the UniProt entries cited, without tags or fusion partners. Where a name states a change or a piece, a line headed by the entry shows the natural chain unless it says otherwise.
UniProt O75449: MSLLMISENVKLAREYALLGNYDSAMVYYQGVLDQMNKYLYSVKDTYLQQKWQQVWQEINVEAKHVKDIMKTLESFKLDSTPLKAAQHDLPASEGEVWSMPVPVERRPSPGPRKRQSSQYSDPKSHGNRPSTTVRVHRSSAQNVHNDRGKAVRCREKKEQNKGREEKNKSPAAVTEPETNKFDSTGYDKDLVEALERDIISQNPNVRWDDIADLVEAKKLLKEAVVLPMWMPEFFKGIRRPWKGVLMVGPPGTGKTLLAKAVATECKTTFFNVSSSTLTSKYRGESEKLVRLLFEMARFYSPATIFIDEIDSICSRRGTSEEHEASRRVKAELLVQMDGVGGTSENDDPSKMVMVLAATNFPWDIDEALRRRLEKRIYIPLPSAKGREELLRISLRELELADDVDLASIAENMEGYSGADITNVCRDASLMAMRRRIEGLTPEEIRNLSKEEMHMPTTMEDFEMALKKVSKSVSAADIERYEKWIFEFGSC
UniProt O14713: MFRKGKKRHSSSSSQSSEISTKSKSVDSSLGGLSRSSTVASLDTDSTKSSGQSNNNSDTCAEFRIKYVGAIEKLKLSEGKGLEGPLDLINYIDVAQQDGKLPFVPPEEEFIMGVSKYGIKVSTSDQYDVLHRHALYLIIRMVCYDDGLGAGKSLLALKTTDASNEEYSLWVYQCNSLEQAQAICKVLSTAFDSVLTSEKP
UniProt O43731: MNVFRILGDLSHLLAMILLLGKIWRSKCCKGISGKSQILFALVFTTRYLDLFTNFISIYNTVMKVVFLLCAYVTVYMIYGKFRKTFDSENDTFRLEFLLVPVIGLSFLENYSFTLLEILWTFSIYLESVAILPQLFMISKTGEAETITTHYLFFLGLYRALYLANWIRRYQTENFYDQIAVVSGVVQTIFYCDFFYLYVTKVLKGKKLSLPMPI
UniProt Q9P2N6: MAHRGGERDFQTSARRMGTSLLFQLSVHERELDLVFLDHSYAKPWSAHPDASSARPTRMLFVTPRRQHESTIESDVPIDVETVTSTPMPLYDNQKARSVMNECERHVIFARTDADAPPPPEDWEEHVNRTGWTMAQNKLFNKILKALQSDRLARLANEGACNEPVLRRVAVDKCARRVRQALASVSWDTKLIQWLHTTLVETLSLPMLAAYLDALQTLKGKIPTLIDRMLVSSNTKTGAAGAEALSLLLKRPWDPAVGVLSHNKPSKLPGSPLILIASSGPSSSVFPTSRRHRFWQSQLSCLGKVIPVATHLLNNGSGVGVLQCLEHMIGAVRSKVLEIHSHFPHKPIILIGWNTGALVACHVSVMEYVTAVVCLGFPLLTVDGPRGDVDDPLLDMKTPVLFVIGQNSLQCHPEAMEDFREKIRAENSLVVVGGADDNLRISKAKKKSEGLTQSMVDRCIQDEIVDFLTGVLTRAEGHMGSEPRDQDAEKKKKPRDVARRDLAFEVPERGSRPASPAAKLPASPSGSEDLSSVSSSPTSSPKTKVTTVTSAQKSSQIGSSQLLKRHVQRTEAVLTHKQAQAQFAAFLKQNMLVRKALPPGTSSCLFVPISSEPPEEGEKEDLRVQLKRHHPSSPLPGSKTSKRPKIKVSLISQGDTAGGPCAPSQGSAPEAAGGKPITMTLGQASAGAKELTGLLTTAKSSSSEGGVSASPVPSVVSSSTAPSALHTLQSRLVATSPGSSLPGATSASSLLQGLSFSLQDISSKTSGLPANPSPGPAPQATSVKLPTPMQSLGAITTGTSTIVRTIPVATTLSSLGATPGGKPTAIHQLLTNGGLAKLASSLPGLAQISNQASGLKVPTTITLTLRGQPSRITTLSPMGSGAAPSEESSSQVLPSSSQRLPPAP
UniProt Q8IY47: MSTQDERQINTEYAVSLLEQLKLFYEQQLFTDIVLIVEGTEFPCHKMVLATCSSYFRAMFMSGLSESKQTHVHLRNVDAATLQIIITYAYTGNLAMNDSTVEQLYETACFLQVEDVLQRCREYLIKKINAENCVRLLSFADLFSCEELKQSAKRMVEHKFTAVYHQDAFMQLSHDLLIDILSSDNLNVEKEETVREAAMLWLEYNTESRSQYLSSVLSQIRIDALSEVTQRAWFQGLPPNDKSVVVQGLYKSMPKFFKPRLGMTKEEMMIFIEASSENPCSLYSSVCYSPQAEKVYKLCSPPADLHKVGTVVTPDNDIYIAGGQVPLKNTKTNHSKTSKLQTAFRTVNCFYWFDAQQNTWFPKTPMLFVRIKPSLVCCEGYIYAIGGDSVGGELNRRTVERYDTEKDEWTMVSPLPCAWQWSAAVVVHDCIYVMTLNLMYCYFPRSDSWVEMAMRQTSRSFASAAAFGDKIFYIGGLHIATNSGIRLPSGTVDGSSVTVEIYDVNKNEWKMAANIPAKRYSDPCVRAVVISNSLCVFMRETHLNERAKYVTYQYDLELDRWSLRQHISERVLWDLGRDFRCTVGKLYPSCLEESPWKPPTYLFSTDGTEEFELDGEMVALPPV
UniProt Q9ULR0: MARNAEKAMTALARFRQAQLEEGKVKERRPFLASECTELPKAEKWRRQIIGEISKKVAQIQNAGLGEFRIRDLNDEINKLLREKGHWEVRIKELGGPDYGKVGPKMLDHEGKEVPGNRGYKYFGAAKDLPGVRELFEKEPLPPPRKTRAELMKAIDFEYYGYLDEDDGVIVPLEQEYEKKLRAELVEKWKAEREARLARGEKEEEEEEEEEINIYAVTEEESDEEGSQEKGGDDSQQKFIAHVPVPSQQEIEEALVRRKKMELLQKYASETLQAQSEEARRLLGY
UniProt Q8TB96: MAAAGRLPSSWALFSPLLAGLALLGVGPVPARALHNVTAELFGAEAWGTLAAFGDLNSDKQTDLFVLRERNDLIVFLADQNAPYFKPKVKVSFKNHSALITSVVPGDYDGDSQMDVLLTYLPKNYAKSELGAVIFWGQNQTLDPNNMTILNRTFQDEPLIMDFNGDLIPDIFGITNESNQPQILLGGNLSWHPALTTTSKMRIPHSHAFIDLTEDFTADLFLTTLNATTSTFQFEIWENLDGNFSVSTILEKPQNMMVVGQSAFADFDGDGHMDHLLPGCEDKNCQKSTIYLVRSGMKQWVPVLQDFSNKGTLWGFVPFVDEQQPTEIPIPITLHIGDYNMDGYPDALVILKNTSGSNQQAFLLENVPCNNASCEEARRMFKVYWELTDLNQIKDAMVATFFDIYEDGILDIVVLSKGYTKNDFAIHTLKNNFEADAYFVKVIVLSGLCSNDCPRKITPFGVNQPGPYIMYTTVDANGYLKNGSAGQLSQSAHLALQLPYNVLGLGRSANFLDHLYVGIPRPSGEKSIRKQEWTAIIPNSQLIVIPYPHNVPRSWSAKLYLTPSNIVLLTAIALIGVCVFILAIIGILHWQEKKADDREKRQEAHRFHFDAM
UniProt Q13576: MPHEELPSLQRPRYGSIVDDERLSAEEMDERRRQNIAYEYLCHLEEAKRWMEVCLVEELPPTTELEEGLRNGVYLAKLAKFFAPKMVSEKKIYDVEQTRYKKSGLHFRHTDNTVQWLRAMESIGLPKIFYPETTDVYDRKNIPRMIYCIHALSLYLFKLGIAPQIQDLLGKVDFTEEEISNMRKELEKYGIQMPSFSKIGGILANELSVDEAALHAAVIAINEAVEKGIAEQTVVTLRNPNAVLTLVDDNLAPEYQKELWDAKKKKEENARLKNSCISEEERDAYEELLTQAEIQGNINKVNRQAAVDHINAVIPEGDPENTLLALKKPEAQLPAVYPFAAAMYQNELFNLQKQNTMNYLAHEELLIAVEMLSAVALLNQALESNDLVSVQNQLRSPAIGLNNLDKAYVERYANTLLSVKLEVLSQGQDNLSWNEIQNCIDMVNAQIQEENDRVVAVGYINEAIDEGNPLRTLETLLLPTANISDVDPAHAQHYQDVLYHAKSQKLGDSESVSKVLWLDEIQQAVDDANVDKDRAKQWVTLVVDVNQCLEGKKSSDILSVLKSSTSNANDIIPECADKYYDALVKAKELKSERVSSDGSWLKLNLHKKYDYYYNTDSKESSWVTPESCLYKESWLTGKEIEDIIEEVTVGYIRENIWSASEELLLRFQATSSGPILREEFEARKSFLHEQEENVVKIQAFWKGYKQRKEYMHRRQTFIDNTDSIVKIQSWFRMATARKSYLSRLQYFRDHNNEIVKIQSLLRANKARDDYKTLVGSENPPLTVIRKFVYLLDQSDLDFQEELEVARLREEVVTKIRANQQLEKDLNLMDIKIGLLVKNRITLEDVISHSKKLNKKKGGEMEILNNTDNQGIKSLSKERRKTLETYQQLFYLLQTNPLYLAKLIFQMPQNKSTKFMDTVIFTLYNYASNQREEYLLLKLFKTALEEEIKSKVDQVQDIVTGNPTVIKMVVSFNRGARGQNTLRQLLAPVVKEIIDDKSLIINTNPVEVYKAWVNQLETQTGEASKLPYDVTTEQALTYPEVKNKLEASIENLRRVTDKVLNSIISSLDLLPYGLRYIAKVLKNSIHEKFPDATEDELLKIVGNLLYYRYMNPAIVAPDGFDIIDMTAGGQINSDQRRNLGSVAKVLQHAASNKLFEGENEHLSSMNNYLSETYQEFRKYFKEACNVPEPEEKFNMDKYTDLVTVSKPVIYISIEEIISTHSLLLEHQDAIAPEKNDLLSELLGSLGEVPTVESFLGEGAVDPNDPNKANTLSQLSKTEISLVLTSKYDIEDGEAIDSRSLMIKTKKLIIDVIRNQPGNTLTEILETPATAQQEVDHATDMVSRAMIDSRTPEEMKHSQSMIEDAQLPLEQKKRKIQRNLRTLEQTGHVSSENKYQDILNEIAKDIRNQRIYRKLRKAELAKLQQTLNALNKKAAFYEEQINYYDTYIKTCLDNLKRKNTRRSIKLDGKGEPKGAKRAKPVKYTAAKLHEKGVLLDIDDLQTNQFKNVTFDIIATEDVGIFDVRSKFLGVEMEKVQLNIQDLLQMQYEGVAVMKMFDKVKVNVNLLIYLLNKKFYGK
UniProt Q8N5M9: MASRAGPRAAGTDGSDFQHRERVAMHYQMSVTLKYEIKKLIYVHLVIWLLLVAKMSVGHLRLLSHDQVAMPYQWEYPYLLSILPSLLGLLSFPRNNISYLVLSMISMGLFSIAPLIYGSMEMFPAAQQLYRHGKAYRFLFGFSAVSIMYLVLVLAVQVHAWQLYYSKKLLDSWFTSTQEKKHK
UniProt Q9NV88, whole entry, looked up: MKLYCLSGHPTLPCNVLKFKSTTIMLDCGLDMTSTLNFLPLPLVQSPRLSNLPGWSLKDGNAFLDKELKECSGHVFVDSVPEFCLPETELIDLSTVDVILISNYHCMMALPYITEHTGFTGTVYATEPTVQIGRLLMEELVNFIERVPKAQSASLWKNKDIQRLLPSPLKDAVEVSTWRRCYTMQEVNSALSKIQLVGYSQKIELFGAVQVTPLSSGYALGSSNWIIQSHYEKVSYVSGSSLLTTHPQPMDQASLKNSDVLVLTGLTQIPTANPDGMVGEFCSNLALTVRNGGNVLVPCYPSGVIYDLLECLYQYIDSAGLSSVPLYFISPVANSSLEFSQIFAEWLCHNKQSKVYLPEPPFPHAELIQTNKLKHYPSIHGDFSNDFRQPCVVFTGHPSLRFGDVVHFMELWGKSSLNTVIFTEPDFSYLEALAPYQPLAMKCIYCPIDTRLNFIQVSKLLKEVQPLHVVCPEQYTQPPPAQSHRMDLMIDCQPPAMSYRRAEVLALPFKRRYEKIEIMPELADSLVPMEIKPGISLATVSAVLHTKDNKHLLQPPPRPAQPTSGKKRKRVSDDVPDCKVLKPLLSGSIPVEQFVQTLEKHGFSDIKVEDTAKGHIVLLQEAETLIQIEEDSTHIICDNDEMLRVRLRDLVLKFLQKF
UniProt Q86U28: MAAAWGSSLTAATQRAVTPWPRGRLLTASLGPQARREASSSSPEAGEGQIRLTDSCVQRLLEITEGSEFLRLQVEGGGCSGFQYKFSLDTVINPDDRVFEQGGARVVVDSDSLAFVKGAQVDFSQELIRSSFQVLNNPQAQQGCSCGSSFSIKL
UniProt Q9Y6Y0: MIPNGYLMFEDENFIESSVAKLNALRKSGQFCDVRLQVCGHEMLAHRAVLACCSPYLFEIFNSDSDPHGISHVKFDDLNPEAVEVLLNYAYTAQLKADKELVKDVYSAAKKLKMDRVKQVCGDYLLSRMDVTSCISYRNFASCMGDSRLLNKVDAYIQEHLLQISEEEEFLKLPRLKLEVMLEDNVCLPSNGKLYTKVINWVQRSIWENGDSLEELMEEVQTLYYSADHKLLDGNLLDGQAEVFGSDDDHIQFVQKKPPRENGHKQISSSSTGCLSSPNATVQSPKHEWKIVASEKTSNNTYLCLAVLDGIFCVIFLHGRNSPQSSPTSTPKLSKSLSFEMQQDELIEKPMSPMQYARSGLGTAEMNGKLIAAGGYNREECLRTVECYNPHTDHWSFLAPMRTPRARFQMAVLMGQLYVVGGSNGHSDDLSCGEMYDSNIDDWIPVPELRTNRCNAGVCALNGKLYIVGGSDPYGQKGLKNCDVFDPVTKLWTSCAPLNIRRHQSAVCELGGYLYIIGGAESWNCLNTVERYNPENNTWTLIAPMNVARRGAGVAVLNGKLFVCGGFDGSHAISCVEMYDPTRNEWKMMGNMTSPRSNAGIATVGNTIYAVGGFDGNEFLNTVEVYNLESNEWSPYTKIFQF

Tests used:
Assay in all cases: log2 fold change, soluble protein after heating vs DMSO (PISA); higher = thermal stabilisation; K562 lysate, 10 uM; active = over 0.2 and 3.5 SD of the protein, either way, in both replicates (recomputed)
alvocidib = compound: CN1CC[C@H](c2c(O)cc(O)c3c(=O)cc(-c4ccccc4Cl)oc23)[C@H](O)C1 [alvocidib]
Summary of the method: (§1)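 Soluble protein was defined as the supernatant remaining after 21,000xg for 90 min, following pooling of heated aliquots and adjustment to 0.5% NP-40 at 4°C. Before that, crude K562 extract at 1 mg/mL protein in PBS pH 7.4 with 1 mM MgCl2 was treated with 10 μM compound for 30 min and heated for 3 min across 48°C-58°C. Quantification used TMTpro 16plex LC-MS/MS with channel sums equalised, and values are log-two fold changes in thermal stability relative to solvent controls from duplicates.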

Tubastatin A = compound: CN1CCc2c(c3ccccc3n2Cc2ccc(C(=O)NO)cc2)C1 [Tubastatin A]
Summary of the method: as §1

[1] = compound: CNC(=O)C1=CC=CC=C1NC2=NC(=NC=C2Cl)NC3=C(C=C(C=C3)N4CCOCC4)OC
Summary of the method: as §1

defactinib = compound: CNC(=O)c1ccc(Nc2ncc(C(F)(F)F)c(NCc3nccnc3N(C)S(C)(=O)=O)n2)cc1 [defactinib]
Summary of the method: as §1

[2] = compound: CNc1nc(-c2ccc3c(N)n[nH]c3c2)cc(N2C[C@@H](C(=O)NC3CCCCC3)CC[C@H]2C)n1
Summary of the method: as §1

encorafenib = compound: COC(=O)N[C@@H](C)CNc1nccc(-c2cn(C(C)C)nc2-c2cc(Cl)cc(NS(C)(=O)=O)c2F)n1 [encorafenib]
Summary of the method: as §1

[3] = compound: COC(=O)[C@H](CCSC)NC(=O)C1=C(C=C(C=C1)NC[C@H](CS)N)C2=CC=CC=C2
Summary of the method: as §1

alisertib = compound: COc1cc(Nc2ncc3c(n2)-c2ccc(Cl)cc2C(c2c(F)cccc2OC)=NC3)ccc1C(=O)O [alisertib]
Summary of the method: as §1

[4] = compound: COc1cc2nc(-c3cc(F)ccc3O)nc(N[C@@H]3CNC[C@H]3C(C)(C)O)c2cc1OC
Summary of the method: as §1

gefitinib = compound: COc1cc2ncnc(Nc3ccc(F)c(Cl)c3)c2cc1OCCCN1CCOCC1 [gefitinib]
Summary of the method: as §1

With IRF3 (UniProt Q14653) the log2 fold change (alvocidib) was inactive: 0, the log2 fold change (Tubastatin A) was inactive: -0.006 and the log2 fold change [1] was inactive: 0.019. For the same target, the log2 fold change (defactinib) was inactive: -0.006, the log2 fold change [2] was inactive: 0.03 and the log2 fold change (encorafenib) was inactive: 0.051. For the same target, the log2 fold change [3] was inactive: -0.097, the log2 fold change (alisertib) was inactive: -0.029 and the log2 fold change [4] was inactive: -0.011. The log2 fold change (gefitinib) was inactive: -0.002.

In the case of KATNA1 (UniProt O75449), the log2 fold change (alvocidib) is reported as inactive: -0.006, the log2 fold change (Tubastatin A) is reported as inactive: -0.021 and the log2 fold change [1] is reported as inactive: -0.041. For the same target, the log2 fold change (defactinib) was inactive: -0.01, the log2 fold change [2] was inactive: -0.065 and the log2 fold change (encorafenib) was inactive: 0.051. The log2 fold change [3] was inactive: -0.008, the log2 fold change (alisertib) was inactive: -0.031 and the log2 fold change [4] was inactive: 0.004. The log2 fold change (gefitinib) was inactive: 0.052.

In the case of ITGB1BP1 (UniProt O14713), the log2 fold change (alvocidib) is reported as inactive: -0.02, the log2 fold change (Tubastatin A) is reported as inactive: 0.09 and the log2 fold change [1] is reported as inactive: -0.054. For the same target, the log2 fold change (defactinib) was inactive: 0.016, the log2 fold change [2] was inactive: 0.005 and the log2 fold change (encorafenib) was inactive: -0.014. For the same target, the log2 fold change [3] was inactive: 0.218, the log2 fold change (alisertib) was inactive: -0.005 and the log2 fold change [4] was inactive: -0.001. For the same target, the log2 fold change (gefitinib) was inactive: 0.096.

With KDELR3 (UniProt O43731) the log2 fold change (alvocidib) was inactive: -0.065, the log2 fold change (Tubastatin A) was inactive: 0.015 and the log2 fold change [1] was inactive: 0.143. The log2 fold change (defactinib) was inactive: -0.234, the log2 fold change [2] was inactive: 0.085 and the log2 fold change (encorafenib) was inactive: 0.227. The log2 fold change [3] was inactive: 0.107, the log2 fold change (alisertib) was inactive: -0.014 and the log2 fold change [4] was inactive: -0.034. For the same target, the log2 fold change (gefitinib) was inactive: 0.045.

In the case of KANSL3 (UniProt Q9P2N6), the log2 fold change (alvocidib) is reported as inactive: -0.146, the log2 fold change (Tubastatin A) is reported as inactive: -0.149 and the log2 fold change [1] is reported as inactive: -0.028. For the same target, the log2 fold change (defactinib) was inactive: 0.172, the log2 fold change [2] was inactive: 0.036 and the log2 fold change (encorafenib) was inactive: 0.053. For the same target, the log2 fold change [3] was inactive: 0.023, the log2 fold change (alisertib) was inactive: -0.08 and the log2 fold change [4] was inactive: 0.02. The log2 fold change (gefitinib) was inactive: -0.014.

KBTBD2 (UniProt Q8IY47) was tested, and the log2 fold change (alvocidib) was inactive: -0.073, the log2 fold change (Tubastatin A) was inactive: 0.167 and the log2 fold change [1] was inactive: -0.009. For the same target, the log2 fold change (defactinib) was inactive: -0.013, the log2 fold change [2] was inactive: -0.036 and the log2 fold change (encorafenib) was inactive: 0.018. The log2 fold change [3] was active: -0.362, the log2 fold change (alisertib) was inactive: -0.053 and the log2 fold change [4] was inactive: -0.01. For the same target, the log2 fold change (gefitinib) was inactive: 0.028.

For ISY1 isoform 1 (UniProt Q9ULR0), the log2 fold change (alvocidib) was inactive: -0.05, the log2 fold change (Tubastatin A) was inactive: -0.03 and the log2 fold change [1] was inactive: 0.013. For the same target, the log2 fold change (defactinib) was inactive: 0.082, the log2 fold change [2] was active: 0.366 and the log2 fold change (encorafenib) was inactive: -0.03. For the same target, the log2 fold change [3] was inactive: -0.149, the log2 fold change (alisertib) was inactive: -0.012 and the log2 fold change [4] was inactive: 0.016. For the same target, the log2 fold change (gefitinib) was inactive: 0.075.

For ITFG1 (UniProt Q8TB96), the log2 fold change (alvocidib) was inactive: -0.054, the log2 fold change (Tubastatin A) was inactive: -0.009 and the log2 fold change [1] was inactive: -0.009. For the same target, the log2 fold change (defactinib) was inactive: 0.012, the log2 fold change [2] was inactive: 0.043 and the log2 fold change (encorafenib) was inactive: 0.078. For the same target, the log2 fold change [3] was inactive: 0.034, the log2 fold change (alisertib) was inactive: 0.017 and the log2 fold change [4] was inactive: 0.01. The log2 fold change (gefitinib) was inactive: -0.06.

In the case of IQGAP2 (UniProt Q13576), the log2 fold change (alvocidib) is reported as inactive: 0.031, the log2 fold change (Tubastatin A) is reported as inactive: -0.111 and the log2 fold change [1] is reported as inactive: 0.03. For the same target, the log2 fold change (defactinib) was inactive: 0.006, the log2 fold change [2] was inactive: -0.025 and the log2 fold change (encorafenib) was inactive: 0.039. For the same target, the log2 fold change [3] was inactive: 0.101, the log2 fold change (alisertib) was inactive: -0.014 and the log2 fold change [4] was inactive: 0.002. For the same target, the log2 fold change (gefitinib) was inactive: -0.028.

JAGN1 (UniProt Q8N5M9) was tested, and the log2 fold change (alvocidib) was inactive: -0.018, the log2 fold change (Tubastatin A) was inactive: 0.062 and the log2 fold change [1] was inactive: 0.032. The log2 fold change (defactinib) was inactive: 0.007, the log2 fold change [2] was inactive: 0.257 and the log2 fold change (encorafenib) was inactive: 0.054. The log2 fold change [3] was inactive: -0.161, the log2 fold change (alisertib) was inactive: 0.084 and the log2 fold change [4] was inactive: -0.042. For the same target, the log2 fold change (gefitinib) was inactive: -0.059.

With KATNAL1 (UniProt Q9BW62) the log2 fold change (alvocidib) was inactive: 0.063, the log2 fold change (Tubastatin A) was inactive: -0.054 and the log2 fold change [1] was inactive: 0.051. For the same target, the log2 fold change (defactinib) was inactive: 0.027, the log2 fold change [2] was inactive: 0.021 and the log2 fold change (encorafenib) was inactive: -0.137. The log2 fold change [3] was inactive: -0.07, the log2 fold change (alisertib) was inactive: 0 and the log2 fold change [4] was inactive: -0.001. The log2 fold change (gefitinib) was inactive: -0.236.

In the case of INTS9 (UniProt Q9NV88), the log2 fold change (alvocidib) is reported as inactive: -0.059, the log2 fold change (Tubastatin A) is reported as inactive: 0.032 and the log2 fold change [1] is reported as inactive: 0.008. The log2 fold change (defactinib) was inactive: -0.06, the log2 fold change [2] was inactive: -0.007 and the log2 fold change (encorafenib) was inactive: 0.022. The log2 fold change [3] was inactive: -0.031, the log2 fold change (alisertib) was inactive: 0.022 and the log2 fold change [4] was inactive: -0.008. For the same target, the log2 fold change (gefitinib) was inactive: 0.018.

For ISCA2 (UniProt Q86U28), the log2 fold change (alvocidib) was inactive: 0, the log2 fold change (Tubastatin A) was inactive: -0.004 and the log2 fold change [1] was inactive: 0.017. The log2 fold change (defactinib) was inactive: 0, the log2 fold change [2] was inactive: -0.004 and the log2 fold change (encorafenib) was inactive: 0.064. For the same target, the log2 fold change [3] was inactive: -0.003, the log2 fold change (alisertib) was inactive: -0.057 and the log2 fold change [4] was inactive: -0.1. For the same target, the log2 fold change (gefitinib) was inactive: 0.074.

INTS8 (UniProt Q75QN2) was tested, and the log2 fold change (alvocidib) was inactive: -0.011, the log2 fold change (Tubastatin A) was inactive: -0.013 and the log2 fold change [1] was inactive: 0.083. The log2 fold change (defactinib) was inactive: 0.084, the log2 fold change [2] was inactive: 0.011 and the log2 fold change (encorafenib) was inactive: 0.098. The log2 fold change [3] was inactive: -0.111, the log2 fold change (alisertib) was inactive: -0.008 and the log2 fold change [4] was inactive: -0.033. For the same target, the log2 fold change (gefitinib) was inactive: -0.04.

With IVNS1ABP (UniProt Q9Y6Y0) the log2 fold change (alvocidib) was inactive: -0.037, the log2 fold change (Tubastatin A) was inactive: -0.12 and the log2 fold change [1] was inactive: 0.02. For the same target, the log2 fold change (defactinib) was inactive: 0.041, the log2 fold change [2] was inactive: -0.021 and the log2 fold change (encorafenib) was inactive: -0.016. The log2 fold change [3] was inactive: 0.098, the log2 fold change (alisertib) was inactive: 0.07 and the log2 fold change [4] was inactive: 0.002. For the same target, the log2 fold change (gefitinib) was inactive: 0.032.

For IPO9 (UniProt Q96P70), the log2 fold change (alvocidib) was inactive: -0.036, the log2 fold change (Tubastatin A) was inactive: 0.009 and the log2 fold change [1] was inactive: 0.033. For the same target, the log2 fold change (defactinib) was inactive: -0.017, the log2 fold change [2] was inactive: 0.007 and the log2 fold change (encorafenib) was inactive: 0.021. For the same target, the log2 fold change [3] was inactive: -0.008, the log2 fold change (alisertib) was inactive: -0.005 and the log2 fold change [4] was inactive: 0.011. For the same target, the log2 fold change (gefitinib) was inactive: 0.01.

For IRAK1 (UniProt P51617), the log2 fold change (alvocidib) was inactive: -0.104, the log2 fold change (Tubastatin A) was inactive: -0.038 and the log2 fold change [1] was inactive: 0.314. The log2 fold change (defactinib) was inactive: 0.086, the log2 fold change [2] was inactive: 0.121 and the log2 fold change (encorafenib) was active: 0.812. The log2 fold change [3] was inactive: 0.062, the log2 fold change (alisertib) was inactive: -0.01 and the log2 fold change [4] was inactive: 0.096. The log2 fold change (gefitinib) was inactive: 0.022.

For JAK1 (UniProt P23458), the log2 fold change (defactinib) was inactive: -0.047, the log2 fold change (encorafenib) was inactive: 0.074 and the log2 fold change [3] was inactive: -0.056.
